Reference: PubChem BioAssay AID504808 (Drosophila RNAi Screening Center, 2011)
Screen: 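Chromatin factors that keep E2F targets switched off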 (primary screen). Cell system: Drosophila S2 cells. Reagent: long dsRNA against Drosophila genes. Read-out: 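Dual luciferase plate measurements; E2F-specific signal taken as firefly over Renilla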. Reading the numbers: E2F firefly: higher = more E2F reporter activity; Renilla normaliser: higher = more normaliser reporter signal. Rule for the call: 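a knock-down counted as active when the firefly/Renilla E2F signal rose above 50%, a threshold chosen arbitrarily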.
The screen tested about 21,000 reagents; this is an unselected part of those that have a named target and a result. Of all reagents, 18 (0.084%) got an active call. 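Raw counts without plate normalisation, one of two replicates; the ratio scores behind the calls were not deposited.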 Reagents against one gene are numbered here. A plus sign joins genes that one reagent is predicted to hit. Reagent sequences are not shown. The record does not give: the amount of reagent, the time to read-out.

target | reagent | E2F firefly, rep 1 | Renilla normaliser, rep 1 | outcome
CG17059 | 1 | 1.01e5 | 4137 | inactive
CG13930 | 1 | 82726 | 3894 | inactive
CG1840 | 1 | 7959 | 700 | inactive
bocks | 1 | 66263 | 2941 | inactive
Tb | 1 | 1.10e5 | 5603 | inactive
ths | 1 | 78478 | 3714 | inactive
euc | 1 | 94742 | 5415 | inactive
CG3635 | 1 | 1.02e5 | 4779 | inactive
CG42268 | 1 | 1.16e5 | 8300 | inactive
CG42268 | 2 | 1.37e5 | 7696 | inactive
Oatp58Da | 1 | 93042 | 3942 | inactive
Zaf1 | 1 | 1.50e5 | 6965 | inactive
Pp4-19C | 1 | 1.31e5 | 5468 | inactive
Pp4-19C | 2 | 1.38e5 | 5891 | inactive
Msh6 | 1 | 1.64e5 | 7627 | inactive
CG7920 | 1 | 1813 | 860 | inactive
CG15312 | 1 | 7998 | 676 | inactive
GlnRS | 1 | 1724 | 1172 | inactive
CG12343 | 1 | 1.32e5 | 6185 | inactive
RpS4 | 1 | 62063 | 6370 | inactive
CG34135 + Nasp | 1 | 1.16e5 | 6980 | inactive
Chs2 | 1 | 1.39e5 | 7117 | inactive
Nmd3 | 1 | 1896 | 896 | inactive
RtcB | 1 | 99362 | 4371 | inactive
Lcp65Ag3 + Lcp65Ag2 + Lcp65Ag1 | 1 | 1.09e5 | 4395 | inactive
Lcp65Ag3 + Lcp65Ag2 + Lcp65Ag1 | 2 | 92652 | 3510 | inactive
CG17127 | 1 | 1.60e5 | 5169 | inactive
CG15754 | 1 | 1.34e5 | 6539 | inactive
spin | 1 | 74427 | 4041 | inactive
CG5886 | 1 | 1786 | 884 | inactive
CG13884 | 1 | 89685 | 3932 | inactive
CG10194 | 1 | 77757 | 3813 | inactive
IntS14 | 1 | 88388 | 3730 | inactive
cib | 1 | 94879 | 5222 | inactive
fest | 1 | 1.48e5 | 4905 | inactive
CG32454 | 1 | 69584 | 3708 | inactive
CG9270 | 1 | 83602 | 3275 | inactive
PGRP-SC1b | 1 | 3168 | 198 | inactive
CG6282 | 1 | 80543 | 3250 | inactive
AANATL4 | 1 | 1.57e5 | 5083 | inactive
CG34221 | 1 | 1.33e5 | 5014 | inactive
Tbce | 1 | 86296 | 3384 | inactive
Scsalpha1 | 1 | 71809 | 3224 | inactive
Try29F | 1 | 1.58e5 | 5387 | inactive
Ugt304A1 | 1 | 1.54e5 | 6942 | inactive
comt | 1 | 90070 | 6782 | inactive
etaTry | 1 | 1.00e5 | 4399 | inactive
Top1 | 1 | 1.69e5 | 5373 | inactive
mkg-p + Tpt | 1 | 81992 | 3162 | inactive
CG15296 | 1 | 1.45e5 | 5906 | inactive
NimC4 | 1 | 1.02e5 | 4836 | inactive
CG6685 | 1 | 1.27e5 | 6548 | inactive
CG17359 | 1 | 1.56e5 | 6846 | inactive
CG12253 | 1 | 79027 | 3259 | inactive
srp | 1 | 87496 | 2631 | inactive
srp | 2 | 70528 | 4935 | inactive
Abcd1 | 1 | 1975 | 1128 | inactive
Had1 | 1 | 1.57e5 | 5933 | inactive
CG33702 | 1 | 1.27e5 | 4477 | inactive
CG33303 | 1 | 1.64e5 | 5958 | inactive
Spn42Dc | 1 | 1.40e5 | 4858 | inactive
nerfin-1 | 1 | 84524 | 3667 | inactive
msl-2 | 1 | 85326 | 3666 | inactive
scb | 1 | 1.30e5 | 5705 | inactive
scb | 2 | 99723 | 4213 | inactive
CG33267 | 1 | 1.22e5 | 5106 | inactive
Amy-d | 1 | 1.31e5 | 5548 | inactive
CG17154 | 1 | 1.28e5 | 7966 | inactive
TotB | 1 | 1.44e5 | 7218 | inactive
Ugt303A1 | 1 | 1.42e5 | 6167 | inactive
dah | 1 | 7780 | 776 | inactive
Prosalpha1R + Prosalpha1 | 1 | 2179 | 231 | inactive
Prp16 | 1 | 7687 | 760 | inactive
Prp16 | 2 | 1.07e5 | 6254 | inactive
CG14985 | 1 | 1.32e5 | 5033 | inactive
CG14985 | 2 | 96193 | 4145 | inactive
hll | 1 | 61665 | 3509 | inactive
Brd7-9 | 1 | 1.05e5 | 4010 | inactive
CG10907 | 1 | 1.37e5 | 8380 | inactive
CG31344 | 1 | 1.08e5 | 5540 | inactive
CG11231 (retired record) | 1 | 59173 | 3391 | inactive
CG14650 | 1 | 86156 | 3636 | inactive
Ipp | 1 | 91648 | 5499 | inactive
Ggt-1 | 1 | 1.43e5 | 5403 | inactive

Limited to “E2F firefly, rep 1”, for 9 of the entries above:
CG9270	83602
PGRP-SC1b	3168
CG6282	80543
AANATL4	1.57e5
CG34221	1.33e5
Tbce	86296
Scsalpha1	71809
Try29F	1.58e5
Ugt304A1	1.54e5
